The source of these data is article PMC7579299 (Anti-Inflammatory & Anti-Allergy Agents in Medicinal …, 2020).

The IC50 is the midpoint of a concentration-inhibition curve.

The assay has as its system MCF-7 (human breast cancer). The assay can be described thus: Anticancer MTT assay, breast cancer cells. The assay is classed as cell-based. To be noted: MCF7, read-out: Anticancer IC50. In short, it runs like this:
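MCF-7 cells grown in DMEM with 10% FBS, penicillin and streptomycin at 37°C in 5% CO₂. About 5000 cells/well were exposed to test compound at 50-500 µg/mL (1 mg/ml DMSO working solution, 0.45-micron filtered) for 24, 48 or 72 h. MTT was added for 2 h, then lysis buffer for 4 h, and A570 was read. Viability = mean OD/control OD × 100.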
(In general: Tetrazolium dyes change colour on reduction, which living cells bring about.)

In the case of `COc1cccc2c1C(=O)c1c(O)c3c(c(O)c1C2=O)C[C@@](O)(C(=O)CO)C[C@@H]3O[C@H]1C[C@H](N)[C@H](O)[C@H](C)O1` [Doxorubicin], the IC50 came out at 1020 nM.
